Data as given in patent publication US12410323B2, “Potent antifouling agents albofungins target multiple fouling organisms” (The Hong Kong University of Science and Technology, priority 2021, dated 2025).
Some of these results come from one statement about several compounds together.

Tested on: MCCC 1A01390 Pseudomonas pachastrellae
Experiment: Biofilm inhibition assay (MTT), marine bacteria
Type: cell-based
Conditions: lowest concentration inhibiting 90% of biofilm formation, 24 h
Experimental: The ability of the bacteria to form static biofilms was tested. Marine bacteria were cultured overnight in marine broth at 22° C. with 220 rpm agitation (Pseudomonas pachastrellae MCCC 1A01390, Sulfitobacter pontiacus MCCC 1A04899 and Psychrobacter nivimaris MCCC 1A 11723) and at 30° C. (Staphylococcus aureus B04, Staphylococcus sp. Z01 and Micrococcus sp. Z02) and then diluted to 10^7 CFU mL^−1 in marine broth supplemented with 1% of glucose; pathogenic bacteria was cultured overnight in LB broth with 1% glucose with 220 rpm at 37° C. Afterwards, 200 μL of the diluted solution were added to each well of a 96-well plate (Corning Inc., New York, USA) and was then incubated at 22° C. or 30° C. for 24 h. […] Absorbance was measured using the Multiskan™ FC microplate photometer (Thermo Fisher Scientific, Waltham, USA) under 570 nm, and MRSA ATCC 43300 was used as a positive control. […]
The antibacterial activities of albofungins were tested following specific protocols (She et al., 2020). […] Biofilm formation was assessed through the MTT assay as previously described. […] Data were analyzed using one-way ANOVA to detect significant differences and standard deviation (SD) was calculated using GraphPad Prism 9. […]

CO[C@@H]1CC[C@H](O)c2c1oc1c3c4c(c(O)c1c2=O)-c1c(cc2c(Cl)c(C)n(N)c(=O)c2c1O)C[C@H]4OCO3 [Chloroalbofungin (3), chloroalbofungin]
MBIC90 (listed as 3): 10 to 20 µg/mL

CO[C@@H]1CC[C@H](O)c2c1oc1c3c4c(c(O)c1c2=O)-c1c(cc2cc(C)[nH]c(=O)c2c1O)C[C@H]4OCO3 [Chrestoxanthone A (4), chrestoxanthone A]
MBIC90 (listed as 4): 10 to 20 µg/mL
